In publication PMC8888459:
These are yes or no findings as the source states them, for the method shown. Some results given as binding are weak or reduced against the parent protein; the word gives no strength. Where a sequence is shown, tags or fusion partners need not be part of it.

Amino acid sequences for entries named in this document (tags omitted). A change or cut given only in a name is not applied to a line headed by its entry.
UniProt P25374: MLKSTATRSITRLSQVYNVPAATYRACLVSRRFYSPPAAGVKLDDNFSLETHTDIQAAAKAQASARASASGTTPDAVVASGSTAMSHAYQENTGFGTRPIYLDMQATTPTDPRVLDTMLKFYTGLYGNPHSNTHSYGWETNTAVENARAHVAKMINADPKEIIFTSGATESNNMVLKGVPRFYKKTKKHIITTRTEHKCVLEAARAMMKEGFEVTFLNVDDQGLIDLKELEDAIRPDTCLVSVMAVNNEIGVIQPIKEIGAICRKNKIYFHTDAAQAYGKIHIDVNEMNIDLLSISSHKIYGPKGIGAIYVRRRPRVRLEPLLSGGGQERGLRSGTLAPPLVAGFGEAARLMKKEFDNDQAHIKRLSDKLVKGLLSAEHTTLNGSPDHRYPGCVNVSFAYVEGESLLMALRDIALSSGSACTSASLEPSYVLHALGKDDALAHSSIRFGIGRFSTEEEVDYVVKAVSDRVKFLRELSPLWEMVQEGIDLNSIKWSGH

Experiments:
[1] = biological target: T1, Yah1-GST fusion protein (S. cerevisiae) (UniProt Q12184); assay: pull-down; GST-tagged Yah1 bait (2.5 μM) incubated with NIA (5 μM or increasing) and/or Isu1 (7.5 μM) in buffer PD (40 mM Hepes–KOH pH 7.5, 5% glycerol, 100 mM KCl, 1 mM DTT, 10 mM MgCl2) 15 min at 25 °C; glutathione agarose 1 h at 4 °C; SDS-PAGE, InstantBlue, densitometry corrected for binding to GST; aerobic (Yah1 cluster oxidised); both purified
T1 sequence: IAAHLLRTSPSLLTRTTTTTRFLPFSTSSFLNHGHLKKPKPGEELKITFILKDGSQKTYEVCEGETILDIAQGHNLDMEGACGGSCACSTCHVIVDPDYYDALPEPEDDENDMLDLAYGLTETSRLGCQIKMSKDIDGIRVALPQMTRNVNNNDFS

[2] = biological target: T1, Yah1-GST fusion protein (S. cerevisiae); assay: BLI; Yah1^GST immobilised on anti-GST biosensors; analytes NIA (10 μM) alone, Isu1 (10 μM) alone or both; buffer BLI (40 mM HEPES–KOH pH 7.5, 5% glycerol, 100 mM KCl, 1 mM DTT, 10 mM MgCl2, 0.05% Triton X-100); room temperature; aerobic (Yah1 cluster oxidised); fits with the 2:1 heterogenous ligand model; both purified
[3] = biological target: T1, Yah1-GST fusion protein (S. cerevisiae); assay: BLI; anaerobic chamber; Yah1^GST (WT or DD/KK) chemically reduced with 5 mM sodium dithionite (30 min, then desalted) and immobilised on anti-GST sensors; analytes NIA (10 μM), NIA with Isu1Sc (10 μM each) or Isu1Sc (10 μM); buffer BLI; both purified
[4] = biological target: T1, Yah1-GST fusion protein (S. cerevisiae); assay: pull-down; competition: Yah1^GST (2.5 μM) with NIA (5 μM), with or without Isu1Sc or Isu1Ct (7.5 μM), then Yfh1 WT or DE/KK added (12.5 μM or increasing concentrations); glutathione resin; densitometry, amount without Yfh1 set as 100%; buffer PD; both purified

| binding [1] | binding [2] | binding [3] | binding [4] | Substance |
| --- | --- | --- | --- | --- |
| binds | binds | binds | binds | NIA complex (Nfs1–Isd11–ACPEc) (from UniProt P25374 37-497; Q6Q560 1-94; P0A6A8 1-78) |
| binds | binds | – | binds | NIA–Isu1 complex with S. cerevisiae Isu1 (from UniProt P25374 37-497; Q6Q560 1-94; P0A6A8 1-78; Q03020 28-165) |
